Primary screen of a compound library

Sequences of proteins named here, by UniProt entry; tags and fusion partners are left off. Residues count along the entry.
UniProt P9WFT3, whole entry: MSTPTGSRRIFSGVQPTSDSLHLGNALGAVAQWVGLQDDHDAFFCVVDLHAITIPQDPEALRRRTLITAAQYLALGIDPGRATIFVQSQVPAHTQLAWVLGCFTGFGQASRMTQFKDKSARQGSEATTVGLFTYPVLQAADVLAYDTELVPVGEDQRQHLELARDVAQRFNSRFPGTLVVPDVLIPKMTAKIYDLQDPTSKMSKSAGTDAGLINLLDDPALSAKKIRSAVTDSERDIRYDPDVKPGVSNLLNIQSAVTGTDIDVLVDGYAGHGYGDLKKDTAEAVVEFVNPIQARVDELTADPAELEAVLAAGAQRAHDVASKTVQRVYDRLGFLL
UniProt I6X8D2, whole entry: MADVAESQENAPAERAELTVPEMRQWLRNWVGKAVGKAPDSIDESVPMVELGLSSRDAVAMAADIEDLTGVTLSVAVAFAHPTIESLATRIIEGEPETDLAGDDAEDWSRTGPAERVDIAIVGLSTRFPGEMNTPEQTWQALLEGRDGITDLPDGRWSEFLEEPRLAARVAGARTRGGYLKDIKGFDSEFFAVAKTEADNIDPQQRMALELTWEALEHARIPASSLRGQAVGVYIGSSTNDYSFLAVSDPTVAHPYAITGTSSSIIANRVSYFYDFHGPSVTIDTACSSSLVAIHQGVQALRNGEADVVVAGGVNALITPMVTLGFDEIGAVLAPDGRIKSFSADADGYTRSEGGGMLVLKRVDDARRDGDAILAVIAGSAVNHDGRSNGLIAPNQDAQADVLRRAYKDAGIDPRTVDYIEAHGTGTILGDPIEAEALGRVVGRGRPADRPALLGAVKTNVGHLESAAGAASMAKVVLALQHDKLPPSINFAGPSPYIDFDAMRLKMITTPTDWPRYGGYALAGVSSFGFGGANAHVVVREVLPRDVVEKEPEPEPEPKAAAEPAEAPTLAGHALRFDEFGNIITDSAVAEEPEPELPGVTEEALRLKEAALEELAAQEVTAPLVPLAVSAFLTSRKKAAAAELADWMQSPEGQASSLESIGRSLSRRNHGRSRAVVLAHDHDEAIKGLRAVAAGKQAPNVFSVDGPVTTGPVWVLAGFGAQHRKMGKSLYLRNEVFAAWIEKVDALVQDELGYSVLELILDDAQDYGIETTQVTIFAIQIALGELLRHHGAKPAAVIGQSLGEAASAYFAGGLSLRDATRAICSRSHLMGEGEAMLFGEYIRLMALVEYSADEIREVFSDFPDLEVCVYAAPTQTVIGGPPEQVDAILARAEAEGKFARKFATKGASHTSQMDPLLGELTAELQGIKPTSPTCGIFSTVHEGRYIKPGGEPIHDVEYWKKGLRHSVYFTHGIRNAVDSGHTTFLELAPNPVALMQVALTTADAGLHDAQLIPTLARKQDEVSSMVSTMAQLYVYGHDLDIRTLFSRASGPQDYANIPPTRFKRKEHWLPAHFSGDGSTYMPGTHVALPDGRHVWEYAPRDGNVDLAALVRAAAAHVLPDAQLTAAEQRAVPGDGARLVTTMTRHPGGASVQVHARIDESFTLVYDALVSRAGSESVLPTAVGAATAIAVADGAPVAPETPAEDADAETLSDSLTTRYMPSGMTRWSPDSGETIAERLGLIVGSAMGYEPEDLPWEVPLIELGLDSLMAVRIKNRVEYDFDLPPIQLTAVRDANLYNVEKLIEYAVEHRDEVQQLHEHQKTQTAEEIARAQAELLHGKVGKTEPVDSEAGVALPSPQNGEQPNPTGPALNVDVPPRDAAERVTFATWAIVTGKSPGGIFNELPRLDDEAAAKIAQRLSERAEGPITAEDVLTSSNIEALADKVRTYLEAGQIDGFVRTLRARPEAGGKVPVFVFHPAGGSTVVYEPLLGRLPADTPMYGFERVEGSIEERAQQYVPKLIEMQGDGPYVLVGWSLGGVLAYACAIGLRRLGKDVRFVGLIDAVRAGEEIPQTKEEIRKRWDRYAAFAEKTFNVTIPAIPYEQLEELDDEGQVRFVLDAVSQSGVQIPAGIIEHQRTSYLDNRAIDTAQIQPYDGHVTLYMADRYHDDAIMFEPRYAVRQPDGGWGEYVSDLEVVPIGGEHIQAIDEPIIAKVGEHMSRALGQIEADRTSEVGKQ
UniProt A4I591, 1-473: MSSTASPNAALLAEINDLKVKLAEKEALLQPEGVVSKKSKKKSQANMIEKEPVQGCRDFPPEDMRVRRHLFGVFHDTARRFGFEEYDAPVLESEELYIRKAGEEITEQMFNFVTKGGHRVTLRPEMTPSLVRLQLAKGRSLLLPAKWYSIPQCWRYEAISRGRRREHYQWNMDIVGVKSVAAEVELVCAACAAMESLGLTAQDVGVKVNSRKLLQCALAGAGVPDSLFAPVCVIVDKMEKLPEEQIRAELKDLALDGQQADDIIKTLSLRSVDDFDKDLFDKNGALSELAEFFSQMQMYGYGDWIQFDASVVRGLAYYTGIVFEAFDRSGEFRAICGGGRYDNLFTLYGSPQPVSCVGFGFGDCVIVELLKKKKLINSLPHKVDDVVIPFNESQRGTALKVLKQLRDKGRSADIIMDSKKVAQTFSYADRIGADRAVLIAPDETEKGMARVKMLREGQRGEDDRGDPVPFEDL
UniProt Q4DA54, 1-478: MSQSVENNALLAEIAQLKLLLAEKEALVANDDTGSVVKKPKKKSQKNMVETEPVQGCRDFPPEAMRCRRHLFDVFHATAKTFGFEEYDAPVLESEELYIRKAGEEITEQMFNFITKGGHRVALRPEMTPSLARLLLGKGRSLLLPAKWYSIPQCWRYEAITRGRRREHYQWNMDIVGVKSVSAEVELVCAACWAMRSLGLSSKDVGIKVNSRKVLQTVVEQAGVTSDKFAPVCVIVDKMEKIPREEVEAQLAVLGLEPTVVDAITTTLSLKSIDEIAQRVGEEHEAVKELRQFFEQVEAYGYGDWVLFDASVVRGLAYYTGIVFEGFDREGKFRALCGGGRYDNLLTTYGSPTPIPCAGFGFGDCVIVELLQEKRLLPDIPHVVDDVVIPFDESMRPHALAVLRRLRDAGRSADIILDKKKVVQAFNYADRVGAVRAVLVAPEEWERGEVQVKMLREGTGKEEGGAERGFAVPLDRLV

MtTrpRS: 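Enzyme assay of tryptophanyl-tRNA synthetase; the read-out is not stated. Target: Tryptophan-tRNA ligase, Mycobacterium tuberculosis (UniProt P9WFT3). Tested at 10 µM. Direction is not recorded; retested compounds ran higher, which suggests that high means inhibition. Size under these conditions: about 65,000 compounds, about 64 of them at 50% or above in at least one test.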
Pks13 thioesterase: 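Polyketide synthase Pks13, Mycobacterium tuberculosis (UniProt I6X8D2). Enzyme assay of the thioesterase domain of polyketide synthase 13; the read-out is not stated. Compounds at 30 µM. The record gives no direction; the compounds picked for IC50 retests had high values, so higher reads as stronger inhibition. About 67,000 compounds were tested under these conditions; 0.46% (about 300) showed 50% or more at least once.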
LiHisRS: 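Histidine-tRNA ligase, Leishmania infantum (UniProt A4I591). Enzyme assay of histidyl-tRNA synthetase; the read-out is not stated. Compounds at 30 µM. The record gives no direction; compounds that gave an IC50 in retests scored well above the rest, so higher reads as stronger inhibition. The assay is labelled LdHisRS but filed under L. infantum. Size under these conditions: about 69,000 compounds, about 410 of them at 50% or above in at least one test.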
TcHisRS: 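Enzyme assay of histidyl-tRNA synthetase; the read-out is not stated. Target: Histidine-tRNA ligase, Trypanosoma cruzi CL Brener (UniProt Q4DA54). Concentration: 30 µM. The record gives no direction; compounds that gave an IC50 in retests scored well above the rest, so higher reads as stronger inhibition. Of about 69,000 compounds tested this way, about 31 (0.045%) reached 50% or more in at least one test.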

Values are the deposited “Percent Effect”, in %.
How 0% and 100% were set is not recorded. Most values in the screen are low, and negative values occur.
The compounds are a random part of those screened.
A dash means the value is not listed here; it may have been measured.

| Compound | MtTrpRS | Pks13 thioesterase | LiHisRS | TcHisRS |
|---|---|---|---|---|
| `CCC(C)NC(=O)CN1CCOCC1` (stereo not shown) | -4.803 | -27.01 | 12.82 | 5.556 |
| `CNC(=O)[C@H]1C[C@@H]2CN(Cc3ccccc3)C[C@H]1O2` | - | 12.82 | 15.38 | 2.793 |
| `CC(C)Cn1nc2ccc(S(=O)(=O)N3CCC(C)CC3)cn2c1=O` | 0.5693 | 7.876 | 32.61 | 10 |
| `COC(=O)c1ccc(N2CCN(C(=O)c3ccc(=O)n(C)c3)CC2)cc1` | -3.846 | - | 5.263 | 5.028 |
| `c1coc(-c2nc3c(c(NCc4n[nH]c5c4CCC5)n2)CCNCC3)c1` | 4.46 | -6.261 | 2.941 | 8.995 |
| `O[C@@H]1CN(Cc2cccnc2)C[C@H]1Oc1ccccc1` | - | 6.113 | 15.62 | 8.511 |
| `c1cnc(NC[C@H]2OC[C@@H]3CCN(Cc4ccncc4)C[C@@H]32)nc1` | -1.152 | -40.18 | 8.333 | 8.571 |
| `OCc1cn([C@@H]2c3ccccc3C3(CCNCC3)[C@H]2O)nn1` | -1.939 | -26.01 | 15.15 | 5.291 |
| `COCCN(C)C[C@@H]1CN(C(=O)c2ccc(O)c(C)c2)C[C@@H]1CO` | 4.549 | -15.61 | 20.22 | 5.528 |
| `CN(Cc1cnccn1)C(=O)c1ccnc(OC2CCC2)c1` | 0.0774 | -8.8 | 0 | 4.167 |
| `CC(=O)N(c1ccc(C)cc1)c1nc(CN2CCCC(C)C2)cs1` (stereo not shown) | 0.3846 | -14.39 | 17.2 | 2.469 |
| `CC(C)N(C)Cc1noc2c1CN(C(=O)c1ccsc1)CC2` | -4.392 | -19.45 | 14 | 5.747 |
| `CC(c1ccc2c(c1)OCO2)N1Cc2nc(N(C)C)ncc2C1=O` (stereo not shown) | 4.588 | 4.014 | 14.16 | -5.263 |
| `O=C(CN1CCCc2sccc2C1=O)NC1CCc2nccn2C1` (stereo not shown) | 6.762 | -8.517 | 21.92 | -3.175 |
| `Cc1cnccc1CCNC(=O)Nc1cnc(N(C)C)nc1` | -1.568 | 2.279 | -5.263 | 4.878 |
| `COc1ccccc1CCNC(=O)NCC(=O)Nc1cccnc1` | 2.67 | -3.96 | 21.35 | -2.591 |
| `CSCC(C)(O)CNC(=O)c1cc(Br)ccc1Cl` (stereo not shown) | -1.782 | -15.6 | 15.38 | 0 |
| `CN1CCN([C@@H]2CN(C(=O)c3cc4cccc(F)c4[nH]3)C[C@H]2O)CC1` | -1.76 | -5.328 | -6.711 | 4.857 |
| `O=C(NCCNC(=O)c1ccc(Br)cc1)c1ccc(O)cc1` | 5.986 | -25.92 | 10.83 | 3.947 |
| `COCCc1ncc(CN2C[C@@H](C(=O)O)[C@H](C(C)C)C2)cn1` | -2.235 | 6.395 | 16.44 | 2.186 |
| `CC(C)CNC(=O)[C@H]1C[C@@H]2CN(C(=O)Nc3ccc(F)cc3)C[C@H]1O2` | 2.766 | -2.596 | 15.38 | 4.878 |
| `CC(Nc1ncnc2c1NC(=O)CN2)c1ccc2c(c1)OCO2` (stereo not shown) | -0.3819 | 12.16 | 18.52 | 4.018 |
| `COc1c(C)cnc(CNC(=O)c2cnc3onc(C)c3c2)c1C` | -3.159 | -2.73 | 13.89 | 2.041 |
| `NC(=O)CN(C(=O)c1c[nH]c2ncccc12)C1CCCC1` | -1.147 | -5.443 | 9.859 | 7.182 |
| `Cc1cc(C)nc(NC2CCOC3(CCCC3)C2)n1` (stereo not shown) | 1.847 | -35.79 | 11.43 | 4.082 |
| `CCOc1nnc(CN2CCN(CCOC)CC2)s1` | 2.679 | -11.95 | 16.96 | 8.333 |
| `O=S(=O)(c1ccccc1)N1CCCN(CCCn2ccnc2)CC1` | -2.347 | -37.46 | 7.547 | 0 |
| `CC(NCC1=Cc2cc(Cl)ccc2OC1)c1nnc2n1CCCC2` (stereo not shown) | 0.5629 | -9.99 | 11.54 | 4.813 |
| `CC1CCN(C)c2ccccc2N1C(=O)c1ccnc(-n2cncn2)c1` (stereo not shown) | -0.8567 | -0.7617 | 6.494 | 4.433 |
| `O=C(COc1ccc(Br)cc1F)Nc1cn[nH]c1` | 2.614 | -0.2377 | 11.9 | 14.12 |
| `Cc1cc(C(=O)N2CCn3cc(CN4CCCC4)nc3C2)no1` | -2.971 | 4.144 | 16 | 17.65 |
| `CN1[C@H]2CC[C@@H]1CN(c1nc(-c3ccncc3)nc3c1cnn3C)CC2` | 2.719 | -0.9849 | 10.39 | -6.061 |
| `O=C(NCC1CCCO1)c1csc(Cc2ccccc2)n1` (stereo not shown) | 13.09 | 6.851 | 17.17 | -1.935 |
| `CCc1noc(CN2CCN(C(=O)C3CC3)CC2)n1` | -4.928 | 3.565 | 11.86 | 5.143 |
| `O=C(NCc1ccccc1CN1CCOCC1)c1ccc(Br)cc1F` | -2.205 | - | 20.55 | 4.926 |
| `CCOCCN1C[C@@H]2CCCO[C@@H]2[C@H](NC(=O)c2cnoc2C)C1` | - | -4.732 | 11.82 | 6.349 |
| `O=C1CCC2(CCN(CC[C@H](O)c3ccccc3)CC2)CN1CCO` | -2.596 | 9.375 | 7.965 | 7.2 |
| `CC(C)(C)c1ncc(C(=O)NCCS(N)(=O)=O)s1` | 2.047 | -10.97 | 16.67 | 2.273 |
| `Cc1ccc(CN2CCc3c(C(=O)N(C)C)nn(C)c3C2)s1` | 1.069 | -13.77 | 19.05 | 0 |
| `O=C(c1ccn[nH]1)N1CCCC(n2cncn2)C1` (stereo not shown) | 0.6823 | -11.62 | 18.92 | 3.383 |
| `COc1cc(CN(C)CCc2ccncc2)c(SC)cc1OC` | 7.021 | -24.34 | 22.45 | 7.179 |
| `O=C(C1CC1)N(Cc1ccc2cc[nH]c2c1)C1CC1` | 5.017 | -5.13 | 15 | 2.484 |
| `O=C(NC1CC1)C1=CC2(CCN(CCO)CC2)c2ccccc21` | -4.07 | -35.68 | 11.54 | 5.825 |
| `O=C(c1ccco1)N1C[C@@H]2CCN(c3cccnc3)C[C@@H]2C1` | -0.08231 | 18.93 | 23.53 | 8.867 |
| `Cc1noc(C)c1CN1C[C@@H](OCc2ccccn2)[C@H]2OCCC[C@H]21` | -0.1383 | 8.202 | 15.38 | 7.317 |
| `Cc1[nH]nc2ncc(C(=O)N3CCN(CC(C)O)CC3)cc12` (stereo not shown) | -0.5303 | -0.1538 | -0.8772 | 0.578 |
| `CC(C)N1CCN(C(=O)c2[nH]nnc2Nc2ccccc2F)CC1` | -0.5424 | -145.2 | -12.5 | -4.969 |
| `CC(C)(C)c1n[nH]c(C2CN(C(=O)c3csnn3)CCO2)n1` (stereo not shown) | 14.3 | -18.13 | 31.43 | 0 |

5 of the entries, repeated:

Compound	MtTrpRS	Pks13 thioesterase	LiHisRS	TcHisRS
Cc1[nH]nc2ncc(C(=O)N3CCN(CC(C)O)CC3)cc12 (stereo not shown)	-0.5303	-0.1538	-0.8772	0.578
Cc1cnccc1CCNC(=O)Nc1cnc(N(C)C)nc1	-1.568	2.279	-5.263	4.878
CC(C)(C)c1n[nH]c(C2CN(C(=O)c3csnn3)CCO2)n1 (stereo not shown)	14.3	-18.13	31.43	0
CCOCCN1C[C@@H]2CCCO[C@@H]2[C@H](NC(=O)c2cnoc2C)C1	-	-4.732	11.82	6.349
CN1[C@H]2CC[C@@H]1CN(c1nc(-c3ccncc3)nc3c1cnn3C)CC2	2.719	-0.9849	10.39	-6.061

The values are deposited in ChEMBL (CHEMBL3988442, “University of Dundee, Small-Polar-MMV Screening Library” (2021)).